# Measurements reported in US6495529B1 (Warner-Lambert Company, priority 1998, dated 2002).
# Test system: α2-receptors
# Experiment: ALPHA-2 binding, p-125Iodoclonidine, canine brain (frontal cortex) membranes
# Parameters: species or system dog
# Settings: radioligand
# Method: Membranes of mongrel dogs were harvested from the canine frontal cortex and prepared as described for lung except that the final membrane protein concentration was adjusted to 0.5 mg/ml.
# Nonspecific binding was determined in separate incubations in the presence of 10 μM phentolamine. The final concentration of p-iodoclonidine was 44-45 pM in competition studies and between 50 pM and 10 nM in saturation experiments. Bound and free […] were separated and the bound quantitated as described above for the ICYP assays.
# All data were analyzed with the aid of microcomputer nonlinear curve fitting programs (PRISM 2.0, Graphpad Software, San Diego Calif.).
# The receptors resident in each of the three membrane preparations were evaluated by standard saturation analysis following the addition of increasing concentrations of the appropriate radioligand.
# The radio ligand added for subsequent α2-displacement assays was adjusted to evaluate only the high affinity receptor. Contributions from p-iodoclonidine binding to imidazoline receptors in the α2-displacement assay were evaluated with epinephrine.
compound,measurement,setting,value
Clc1cc(I)cc(Cl)c1NC1=NCCN1 [p-iodoclonidine],Bmax1 (high affinity),Saturation Analysis,57 femtomoles per mg protein
same,Bmax2 (low affinity),Saturation Analysis,73 femtomoles per mg protein
same,Bmax1 (high affinity),Scatchard Analysis,67 femtomoles per mg protein
same,Bmax2 (low affinity),Scatchard Analysis,120 femtomoles per mg protein
